The list shows a part of the results.

This assay relates to T1, CTL2-GFP (C. trachomatis L2/434/Bu, GFP-expressing).
T1 construct: L2/434/Bu, GFP-expressing
Set-up: species or system HeLa; Intracellular C. trachomatis growth in HeLa cells, bulk GFP fluorescence relative to DMSO. As to conditions: bulk GFP, single well; 28.5 h, 10 µM; inhibitor.
For `CCOc1cccc(-c2cncc(N(C)CCN(C)C)n2)c1` [CBK065977], the “% of control remaining” value is reported as 150.235%.
Regarding `Fc1cccc(COc2nc3ccccc3n3nnnc23)c1` [CBK288198], the “% of control remaining” value was found to be 105.473%.
Take `CCn1cnnc1CNC(=O)N1CCCN(Cc2cccs2)CC1` [CBK305882]: the “% of control remaining” value was determined as 116.564%.
For `O=C1CNC(=O)C2(C/C=C/C[C@H]3COCC[C@@H]3N1)CCN(Cc1ccc(Cl)cn1)CC2` [CBK292132], the “% of control remaining” value is 126.954%.
On to `CN(C)C(=O)c1cc(-c2cccc(N(C)C)c2)cnc1NCC1CC1` [CBK076333], for which the “% of control remaining” value was 166.275%.
As to `Cn1nc(NC(=O)c2ccco2)c2c(F)cccc21` [CBK057774], the “% of control remaining” value was found to be 154.852%.
The same measure for `CC(=O)[C@H]1C[C@@H](CC(=O)Nc2ccc(Cl)nc2)C1(C)C` [CBK091338]: 154.999%; for `O=C1CN(C(=O)Cn2c(-c3cccs3)cc3cccnc32)CCN1` [CBK282543]: 129.503%.
`O=C(CC12CC3CC(CC(C3)C1)C2)Nc1nc[nH]n1` [CBK288208]: the “% of control remaining” value is on record as 104.781%.
Take `CCOC(=O)c1c(NC(=O)Cn2nc([N+](=O)[O-])c(Cl)c2C)sc2c1CCC(C)C2` (stereo not shown) [CBK263054]: the “% of control remaining” value is 100%.
Turning to `N=c1n(CC(=O)O)c2ccccc2n1Cc1ccccc1` [CBK286531], the “% of control remaining” value was 113.011%.
Then `O=C(O)c1ccccc1N1C(=O)c2ccc(Oc3ccc(Oc4ccc5c(c4)C(=O)N(c4ccccc4C(=O)O)C5=O)cc3)cc2C1=O` [CBK261186], with 100%; and `O=C(NCCCn1ccnc1)c1cnn2c(C(F)(F)F)cc(-c3cccs3)nc12` [CBK263060], with 100%; and `COCCCn1c(N)c(C(=O)NCC(C)C)c2nc3ccccc3nc21` [CBK126495], with 121.471%.
Turning to `Cc1c(C)n(Cc2ccccc2)c2ccc(C(=O)OCCN3CCOCC3)cc12` [CBK262427], the “% of control remaining” value stood at 113.425%.
Then `CN1CCC(N2CCN(C(=O)Nc3ccc4c(c3)OCCO4)CC2)CC1` [CBK155898], with 138.007%.
In the case of `Cc1ccc(OCC(O)CN2CCN(c3ccccn3)CC2)cc1C` (stereo not shown) [CBK058884], the “% of control remaining” value is listed as 114.558%.
As for `Cc1ccc(SCCCn2ccnc2)cc1` [CBK269733C], the “% of control remaining” value came out at 109.243%.
`CS(=O)(=O)Nc1cc(-c2noc([C@@H]3CCCN3C3CCC3)n2)ccn1` [CBK288889]: the “% of control remaining” value was 113.847%.
Then `O=C(N/N=C/C1C=Nc2ccccc21)c1cc([N+](=O)[O-])cc([N+](=O)[O-])c1` (stereo not shown) [CBK261485], with 100%.
For `Cc1nnc(N2C(=O)c3oc4ccc(Cl)cc4c(=O)c3C2c2cccnc2)s1` (stereo not shown) [CBK267010], the “% of control remaining” value was found to be 120.784%.
As for `Cc1ncccc1C(=O)N1CCC(c2cc3ccccc3cn2)CC1` [CBK284854], the “% of control remaining” value turned out to be 67.5639%.
As to `O=C(CSc1ncc(C(=O)O)n1-c1ccc(F)cc1)NCCc1ccc(F)cc1` [CBK297513], the “% of control remaining” value is on record as 136.166%.
As to `Cc1ccc2oc([C@H]3CN(C(=O)C(C)(C)NC(=O)OC(C)(C)C)C[C@@H]3C(=O)O)cc2c1` [CBK001600], the “% of control remaining” value was determined as 123.608%.
The same measure for `Cc1ccc(NC(=O)c2ccccc2OCC(=O)NC23CC4CC(CC(C4)C2)C3)cc1Cl` [CBK265091]: 100%; for `COc1ccc(NS(=O)(=O)c2ccc3c(c2)N(CC(=O)O)C(=O)CO3)cc1NS(C)(=O)=O` [CBK297745]: 115.244%; for `Cc1ccc2oc(C(=O)Nc3sc4c(c3C(=O)NCC3CCCO3)CCC4)c(C)c2c1` (stereo not shown) [CBK266282]: 145.498%.
`Cc1c(C(=O)Nc2nc(-c3ccc(S(=O)(=O)N4CCOCC4)cc3)cs2)oc2ccc(Cl)cc12` [CBK267663]: the “% of control remaining” value worked out at 110.627%.
`CCC1(CC)OC(N[C@@H](C)c2ccc(Cl)cc2)=NC1=O` [CBK126666]: the “% of control remaining” value is reported as 138.046%.
Then `O=C(CN1C2CCC1CC(O)(c1ccco1)C2)Nc1ccc(F)cc1` (stereo not shown) [CBK284062], with 105.895%; and `N[C@H]1CCN2C(=O)c3cc(-c4ccc(F)cc4F)ccc3NC(=O)[C@H]12` [CBK289345], with 112.388%.
As for `COc1ccc2c(c1)C(C(C(=O)O)C(=O)O)c1ccccc1O2` (stereo not shown) [CBK266435], the “% of control remaining” value came to 163.875%.
With `CSc1ccc(-c2nccnc2OC(c2ccccc2)c2ccccc2)cc1` [CBK106797], the “% of control remaining” value was determined as 95.3802%.
Take `COc1cccc(N2CCN(CC(=O)N3CCC(C(N)=O)CC3)CC2)c1` [CBK202881]: the “% of control remaining” value is reported as 113.523%.
`CN(C)CCN(C)c1cncc(-c2cccc(N(C)C)c2)n1` [CBK065659]: the “% of control remaining” value stood at 89.6742%.
For the compound `O=C(OCc1ccc(S(=O)(=O)c2ccccc2)cc1)c1cc(O)nc2ccccc12` [CBK266782], the “% of control remaining” value stood at 129.348%.
Regarding `c1ccc(CN2CCC(N3CCC(N4CCc5ccccc5C4)CC3)CC2)cc1` [CBK264730G], the “% of control remaining” value turned out to be 123.541%.
With `O=C(O)CC1C(=O)NCCN1Cc1ccc(F)c(F)c1` (stereo not shown) [CBK270008], the “% of control remaining” value is on record as 125.94%.
With `CN(C)C(CNc1cncc(-c2cccc(Cl)c2)n1)c1cccnc1` (stereo not shown) [CBK037247], the “% of control remaining” value came out at 76.9913%.
For `Cc1cc(C)nc(N2CCC(CC(=O)NCCOc3cccc(F)c3)CC2)n1` [CBK285996], the “% of control remaining” value amounted to 110.721%.
In the case of `CCc1ccc(C(=O)C(C)OC(=O)c2nc3nc(C)cc(C)n3n2)cc1` (stereo not shown) [CBK305023], the “% of control remaining” value came to 134.88%.
As to `Cc1ccc(N2CCCN(C(=O)COc3ccccc3F)CC2)nn1` [CBK305261], the “% of control remaining” value is recorded as 79.63%.
`O=C(Oc1cccc2cccnc12)c1cccc(S(=O)(=O)Oc2cccc3cccnc23)c1` [CBK264545]: the “% of control remaining” value was 100%.
Turning to `O=C(O)C(Cc1ccccc1)NS(=O)(=O)c1ccc(I)cc1` (stereo not shown) [CBK268807], the “% of control remaining” value turned out to be 127.119%.
The same measure for `OC1CCN(Cc2c(-c3cccs3)[nH]c3ncccc23)CC1` [CBK283318]: 149.165%; for `O=C1CNC(=O)C2(C/C=C/C[C@H]3COCC[C@H]3N1)CCN(CCOc1ccccc1)CC2` [CBK292077]: 137.055%; for `Cc1ccc(CNc2cc(C)ccn2)cc1` [CBK005419]: 119.715%.
Consider `CCc1nc(C(C)NCC(=O)Nc2cc(C)nn2C)cs1` (stereo not shown) [CBK305118], for which the “% of control remaining” value amounted to 140.342%.
Turning to `COc1ccc(Cl)cc1C(=O)Nc1cnn(CCCC(=O)O)c1` [CBK269855], the “% of control remaining” value is 119.18%.
